The target of the assay is androglobin (Adgb) (mouse (endogenous in testis)) (UniProt G3UZ78). As to the kind of experiment: affinity purification with mass spectrometry; total protein extracts of wild-type mouse testes (4 mg) immunoprecipitated with anti-Adgb or control rabbit IgG on protein G-sepharose, washes with 300 mM and 150 mM NaCl, LC-MS/MS.

Amino acid sequences for entries named in this document (tags omitted).
UniProt G3UZ78: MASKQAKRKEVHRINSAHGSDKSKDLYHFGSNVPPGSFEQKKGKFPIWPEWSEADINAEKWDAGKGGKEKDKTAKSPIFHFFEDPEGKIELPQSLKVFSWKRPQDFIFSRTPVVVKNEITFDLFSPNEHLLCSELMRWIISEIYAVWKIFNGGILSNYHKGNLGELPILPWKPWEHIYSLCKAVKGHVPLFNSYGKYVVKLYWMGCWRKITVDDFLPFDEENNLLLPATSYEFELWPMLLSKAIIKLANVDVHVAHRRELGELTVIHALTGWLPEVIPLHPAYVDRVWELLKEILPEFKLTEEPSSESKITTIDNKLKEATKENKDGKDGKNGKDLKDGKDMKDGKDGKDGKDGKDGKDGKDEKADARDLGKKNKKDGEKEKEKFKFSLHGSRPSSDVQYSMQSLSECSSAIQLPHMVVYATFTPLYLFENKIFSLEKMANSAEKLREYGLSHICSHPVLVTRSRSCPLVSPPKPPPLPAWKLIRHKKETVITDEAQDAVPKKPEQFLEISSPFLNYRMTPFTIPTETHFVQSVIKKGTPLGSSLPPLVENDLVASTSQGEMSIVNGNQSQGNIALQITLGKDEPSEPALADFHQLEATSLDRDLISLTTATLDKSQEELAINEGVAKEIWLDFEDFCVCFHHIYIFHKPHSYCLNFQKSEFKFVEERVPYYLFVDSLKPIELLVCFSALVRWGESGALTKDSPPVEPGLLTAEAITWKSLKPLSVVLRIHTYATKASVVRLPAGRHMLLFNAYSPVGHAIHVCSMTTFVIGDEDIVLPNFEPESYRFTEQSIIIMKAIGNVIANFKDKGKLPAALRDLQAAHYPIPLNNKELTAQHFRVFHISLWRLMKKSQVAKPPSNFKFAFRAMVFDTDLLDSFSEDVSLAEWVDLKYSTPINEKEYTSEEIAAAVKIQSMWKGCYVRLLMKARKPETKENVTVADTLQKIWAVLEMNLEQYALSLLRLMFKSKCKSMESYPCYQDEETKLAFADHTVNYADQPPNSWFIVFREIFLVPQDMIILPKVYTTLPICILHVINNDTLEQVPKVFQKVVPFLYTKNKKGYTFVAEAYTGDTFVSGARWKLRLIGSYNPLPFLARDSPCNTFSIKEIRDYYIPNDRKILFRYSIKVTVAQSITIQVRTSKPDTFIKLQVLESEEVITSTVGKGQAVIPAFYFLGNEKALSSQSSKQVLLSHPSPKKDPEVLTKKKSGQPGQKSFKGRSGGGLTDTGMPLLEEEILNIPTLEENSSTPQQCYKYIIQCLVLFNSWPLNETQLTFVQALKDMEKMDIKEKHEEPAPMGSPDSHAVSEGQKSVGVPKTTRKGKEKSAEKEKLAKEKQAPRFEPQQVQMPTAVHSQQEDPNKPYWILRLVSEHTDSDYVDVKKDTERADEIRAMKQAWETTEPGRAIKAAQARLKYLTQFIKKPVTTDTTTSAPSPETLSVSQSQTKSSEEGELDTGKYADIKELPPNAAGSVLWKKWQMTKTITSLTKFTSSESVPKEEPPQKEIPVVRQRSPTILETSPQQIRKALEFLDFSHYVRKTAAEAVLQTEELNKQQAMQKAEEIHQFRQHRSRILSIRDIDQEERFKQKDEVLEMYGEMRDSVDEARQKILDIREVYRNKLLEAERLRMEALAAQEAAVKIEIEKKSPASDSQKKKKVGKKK

No constants are given. Whether binding was seen depends on the method and setting. In cells and extracts the contact can be indirect. A yes stands for co-enrichment or nearness to the bait. Other partners may have been found.

B1: septin 10 (Sept10) (protein, UniProt Q8C650 1-452)
chain: MASCDEIKEHPRSLSMCGHVGFESLPDQLVDRSIEQGFCFNILCVGETGIGKSTLINTLFNTNFEELESSHFCPCVRLRAQTYELQESNVRLKLTIVNTVGFGDQINKEDSYQPIVDYIDDQFEAYLQEEVKIKRALFNYHDSRIHVCLYFIAPTGHSLRTLDLLTMKSLDNKVNIIPLIAKADTISKSELQKFKMKLMNELVINGVQIYQFPTDDDTTSKINGAMNGHLPFAVVGSMDEIKVGNKMVKGRQYPWGIVQVENENHCDFVKLREMLICTNMEDLREQTHMRHYELYRRCKLQEMGFVDMGPENKPLSLQETYEAKRHEFYGERQRKEEQMKQMFVQRVKEKEAILKEAERELQAKFEHLKRIHQEERMKLEEKRRMLEEESVAFAKKKATCELFPNQSFLASGSSIRKDKDRKKADGASAFCDCLTAQESVRLCISSPRKDMD
In the case of B1, the binding entry was “binds”.

(Values after article PMC9249397.)
